These are yes or no findings as the source states them, for the method shown. In cells and extracts the contact can be indirect. Some entries that bind do so weakly or less than the wild type. Sequences can lack the tags named with a protein.
Target: HA-tagged guinea pig Mincle (macrophage inducible C-type lectin) (guinea pig)
Assay: co-IP; HEK293T cells transfected with the HA-tagged receptor alone or together with Flag-tagged gpFcRγ; total lysates immunoprecipitated with anti-HA (mAb for gpMincle, pAb for gpMCL) and blotted with anti-Flag pAb and anti-HA

binding: binds
B1: Flag-tagged guinea pig FcRγ (protein, UniProt Q07249 19-86)
chain: LGEPQLCYILDAILFLYGIILTLLYCRLKIQVRKATVASYEKPDGIYTGLSTRNQETYETLKHEKPPQ

From article PMC3923057
